In patent US10864200B2, “Stable formulations for immune-modulatory macrolides” (Roche Diagnostics Operations, Inc., priority 2017, dated 2020):
For part of these data: At least one read-out could not be matched to a standard name with certainty. For part of these data: At least one compound was matched to its structure with a doubt left. Some results were stated once for a whole list of compounds, not compound by compound. Some compounds share one range, which may span the group rather than tell each member.

Columns and labels:
[1] = Real-time stability study of everolimus in hemolysate with NaN3 as additive; assay type: physicochemical
[2] = aqueous formulations free of organic solvents, including blood-based samples, at 2-8° C.; cited from earlier work
[3] = Real-time stability (RTS) of everolimus in chlorhexidine-containing cell-free blood hemolysate, LC-MS/MS; assay type: physicochemical
Method: (§1) A formulation was prepared by firstly hemolyzing human whole blood: Human EDTA whole blood of 5 donors was hemolyzed by a freeze-and-thaw cycle. After freezing the whole blood sample from each donor separately at −80° C. and thawing at room temperature, all samples were combined, mixed on a roller for at least 1 hour and then centrifuged for 15 minutes at 22° C. and 12000 g in order to remove fragments of hemolyzed blood cells potentially present. After the centrifugation, the upper section (approximately ⅘ of the whole volume) of the hemolyzed blood was used as hemolysate. Finally, chlorhexidine was added to the hemolysate to a concentration of 0.024%.
(§2) For checking the RTS, the chlorhexidine-containing hemolysate was spiked from a highly concentrated stock solution of everolimus to approx. 100 ng/ml, and aliquots thereof were stressed at 6° C. for 3, 6, 9, 12, and 15 months respectively in brown LC-MS vials. The stressed samples and the corresponding non-stressed samples (T0 samples) were analyzed by LC-MS/MS measurements.
LC-MS/MS method: Before performing the LC-MS/MS analysis, the samples were treated by addition of 10 μL isotope-labeled internal standards (d4/2×C13—everolimus) to 100 μL of the sample to be analyzed, followed by a protein precipitation by addition of 150 μL acetonitrile. The mixture was incubated at 4° C. for 60 minutes and then centrifuged (18000 g, 4° C., 30 min). The supernatant was diluted 1:4 with a solvent mixture of 30% acetonitrile and 70% water and then injected in the LC-MS/MS. The samples were quantified by an external calibration curve. The calibrator was a set of solutions with different concentrations of analyte and they were run through the same preparation workflow, with the same internal standard as the samples. For the calculation of the concentration in a sample, the response factors (ratio of analyte peak area and internal standard peak area) of the sample were referenced with the linear function of the calibration curve (ratio by concentration). The recovery value was the concentration measured at time point (Ti) compared to the non-stressed concentration at start time point (T0) as reference (see Table 3). Formulations with recoveries >90% were classified as stable.
LC-MS/MS conditions were • Solvents: A: 0.5 mM NH4Acetate in H2O/B: Methanol • Gradient: according to Table 2. • AB Sciex 6500 QTRAP/Agilent HPLC 1290-Infinity • APCI source negative mode • Column: Phenomenex—Kinetex F5, 2.6 μm particle, 150 mm×2.1 mm • Temperature: 50° C. (Column) and 8° C. (Autosampler) • Injection volume 20 μL • Calibration: external, with 6 concentration levels covering 0-500 ng/mL • MRM Transition at DP: −76 V EP: −10 V CE: −30 V CXP: −24 V • Detection: everolimus: Q1: 956.6 Da Q3: 590.2 Da; everolimus d4,2×C13: Q1: 962.2 Da Q3: 590.2 Da.

[4] = Real-time stability (RTS) of sirolimus and tacrolimus in chlorhexidine-containing cell-free blood hemolysate, LC-MS/MS; assay type: physicochemical; settings: for area-ratio (analyte / internal standard): hemolysate with 0.024% chlorhexidine
Method: as §1
as §2, with “sirolimus” for “everolimus”, “ng/mL or tacrolimus to approx. 135 ng/mL,” for “ng/ml,”, “3” for “3, 6, 9, 12, and 15”, “stored at 6° C. for a couple of days until their” for “analyzed by”, “analysis.” for “measurements.”
LC-MS/MS method: Before performing the LC-MS/MS analysis the samples were prepared by addition of 10 μL structurally similar internal standards (everolimus D4 2×C13 for sirolimus and non-labeled ascomycin for tacrolimus) to 100 μL of the sample to be analyzed, followed by a protein precipitation by addition of 150 μL acetonitrile. The mixture was incubated at 4° C. for 60 minutes and then centrifuged (18000 g, 4° C., 30 min). The supernatant was 1:4 diluted with a solvent mixture of 30% acetonitrile and 70% deionized water and then injected in the LC-MS/MS. The recovery value was the found area-ratio at time point (T1) compared to the non-stressed area-ratio at start time point (T0) as reference (see table 5). Formulations with recoveries >90% were classified as stable and with 80-90% as acceptable.
LC-MS/MS conditions were • Solvents: A: 5 mM NH4Acetate in H2O+0.1% Formic acid/ • B: Methanol+0.1% Formic acid • Gradient: according to Table 4. • AB Sciex Triple Quad 6500+/Agilent HPLC 1290-Infinity II • ESI source • Column: Phenomenex—Kinetex F5, 2.6 μm particle, 50 mm×2.1 mm • Temperature: 40° C. (Column) and 8° C. (Autosampler) • Injection volume 20 μL • MRM Transition at DP: 70 V EP: 10 V CXP: 12 V • Detection: everolimus: Q1: 975.7 Da Q3: 908.7 Da CE 25 V • everolimus d4,2×C13: Q1: 981.7 Da Q3: 914.7 Da CE 25 V • sirolimus: Q1: 931.7 Da Q3: 864.6 Da CE 25 V • tacrolimus: Q1: 821.5 Da Q3: 576.4 Da CE 33 V • ascomycin: Q1: 809.5 Da Q3: 564.4 Da CE 33 V

## CO[C@H]1C[C@@H]2CC[C@@H](C)[C@@](O)(O2)C(=O)C(=O)N2CCCC[C@H]2C(=O)O[C@H]([C@H](C)C[C@@H]2CC[C@@H](OCCO)[C@H](OC)C2)CC(=O)[C@H](C)/C=C(\C)[C@@H](O)[C@@H](OC)C(=O)[C@H](C)C[C@H](C)/C=C/C=C/C=C/1C [everolimus, (1R,9S,12S,15R,16E,18R,19R,21R,23S,24E,26E,28E,30S,32S,35R)-1,18-dihydroxy-12-[(2R)-1-[(1S,3R,4R)-4-(2-hydroxyethoxy)-3-methoxycyclohexyl]propan-2-yl]-19,30-dimethoxy-15,17,21,23,29,35-hexamethyl-11,36-dioxa-4-azatricyclo hexatriaconta-16,24,26,28-tetraene-2,3,10,14,20-pentone]
[1]; 3 months at 6° C.
  Recovery value: 94%
[1]; T0 (reference)
  Recovery value: 100%
[2]
  time period for which solutions are stable: 1-6 weeks
[3]; 3 months at 6° C.
  Recovery value (concentration at Ti compared to T0): 95%
[3]; 6 months at 6° C.
  Recovery value (concentration at Ti compared to T0): 109%
[3]; 9 months at 6° C.
  Recovery value (concentration at Ti compared to T0): 100%
[3]; 12 months at 6° C.
  Recovery value (concentration at Ti compared to T0): 123%
[3]; 15 months at 6° C.
  Recovery value (concentration at Ti compared to T0): 104%
[3]; T0 (reference)
  Recovery value (concentration at Ti compared to T0): 100%

## CO[C@H]1C[C@@H]2CC[C@@H](C)[C@@](O)(O2)C(=O)C(=O)N2CCCC[C@H]2C(=O)O[C@H]([C@H](C)C[C@@H]2CC[C@@H](O)[C@H](OC)C2)CC(=O)[C@H](C)/C=C(\C)[C@@H](O)[C@@H](OC)C(=O)[C@H](C)C[C@H](C)/C=C/C=C/C=C/1C [sirolimus, (1R,9S,12S,15R,16E,18R,19R,21R,23S,24E,26E,28E,30S,32S,35R)-1,18-dihydroxy-12-{(2R)-1-[(1S,3R,4R)-4-hydroxy-3-methoxycyclohexyl]-2-propanyl}-19,30-dimethoxy-15,17,21,23,29,35-hexamethyl-11,36-dioxa-4-azatricyclo hexatriaconta-16,24,26,28-tetraene-2,3,10,14,20-pentone]
[2]
  time period for which solutions are stable: 1-6 weeks
[4]; 3 months at 6° C.
  Recovery value (area-ratio at T1 compared to T0): 81%
  area-ratio (analyte / internal standard): 0.606
[4]; T0 (non-stressed), sirolimus approx. 100 ng/mL, tacrolimus approx. 135 ng/mL
  area-ratio (analyte / internal standard): 0.745
[4]; T0 (reference)
  Recovery value (area-ratio at T1 compared to T0): 100%

## C=CC[C@@H]1/C=C(\C)C[C@H](C)C[C@H](OC)[C@H]2O[C@@](O)(C(=O)C(=O)N3CCCC[C@H]3C(=O)O[C@H](/C(C)=C/[C@@H]3CC[C@@H](O)[C@H](OC)C3)[C@H](C)[C@@H](O)CC1=O)[C@H](C)C[C@@H]2OC [tacrolimus, (1R,9S,12S,13R,14S,17R,18E,21S,23S,24R,25S,27R)-1,14-dihydroxy-12-[(1E)-1-[(1R,3R,4R)-4-hydroxy-3-methoxycyclohexyl]prop-1-en-2-yl]-23,25-dimethoxy-13,19,21,27-tetramethyl-17-(prop-2-en-1-yl)-11,28-dioxa-4-azatricyclo octacos-18-ene-2,3,10,16-tetrone]
[2]
  time period for which solutions are stable: 1-6 weeks
